Results deposited as PubChem BioAssay AID1259277 (Sanger Institute, 2017).

- Purpose: 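Kinases whose depletion works synergistically with BYL719, cetuximab or trametinib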 (follow-up of hits)
- Cell system: LS123 human colorectal cancer cells
- Reagents: single siRNA against human genes
- Conditions: anchor drug BYL719 at 1 µM, cetuximab at 5 µg/ml or trametinib at 10 nM, or DMSO vehicle only, given one day after siRNA delivery
- Detection: 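Replicate-averaged viability normalised to non-targeting pool 2 siRNA, and a synergy score contrasting observed combination viability with single siRNA and single drug effects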
- Reading the numbers: synergy score with trametinib: higher = stronger synergistic killing with trametinib; synergy score with BYL719: higher = stronger synergistic killing with BYL719; synergy score with cetuximab: higher = stronger synergistic killing with cetuximab
- Call rule: 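Active if synergy exceeds 0.10 for any of the three drug combinations, otherwise inactive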
- Calls: active = synergy with at least one anchor drug; inactive = no synergy with any anchor drug
In all, the deposit lists 160 reagents; shown is an unselected part. In the full data, 48 (30%) are marked active. 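Calls refer to individual siRNAs; confirming a gene required at least two siRNAs in multiple cell lines.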 The numbers tell different reagents against one gene apart. Further read-outs or replicates are left out here. No sequences are given here. Not stated in the record: the amount of reagent, the time to read-out.

synergy score with trametinib	synergy score with BYL719	synergy score with cetuximab	Outcome	target	reagent no.
-0.025	-0.084	-0.0587	inactive	IRAK1 (interleukin 1 receptor associated kinase 1)	1
0.115	0.0115	-0.131	active	IRAK1 (interleukin 1 receptor associated kinase 1)	2
-0.128	-0.13	-0.158	inactive	IRAK1 (interleukin 1 receptor associated kinase 1)	3
-0.0967	0.00934	-0.141	inactive	IRAK1 (interleukin 1 receptor associated kinase 1)	4
0.107	-0.134	-0.0375	active	CRIM1 (cysteine rich transmembrane BMP regulator 1)	1
-0.02	-0.299	-0.0928	inactive	CRIM1 (cysteine rich transmembrane BMP regulator 1)	2
0.0427	-0.0685	-0.11	inactive	CRIM1 (cysteine rich transmembrane BMP regulator 1)	3
-0.0778	-0.25	-0.151	inactive	CRIM1 (cysteine rich transmembrane BMP regulator 1)	4
0.0938	-0.0892	-0.00493	inactive	MARK3 (microtubule affinity regulating kinase 3)	1
0.234	-0.0049	-0.114	active	MARK3 (microtubule affinity regulating kinase 3)	2
0.13	-0.0321	-0.0119	active	MARK3 (microtubule affinity regulating kinase 3)	3
0.181	-0.0863	-0.0563	active	MARK3 (microtubule affinity regulating kinase 3)	4
0.328	-0.198	-0.0556	active	PAK1 (p21 (RAC1) activated kinase 1)	1
0.103	-0.0799	-0.0556	active	PAK1 (p21 (RAC1) activated kinase 1)	2
0.0308	0.0313	-0.00702	inactive	PAK1 (p21 (RAC1) activated kinase 1)	3
0.166	-0.12	-0.028	active	PAK1 (p21 (RAC1) activated kinase 1)	4
-0.142	-0.391	-0.329	inactive	COASY (Coenzyme A synthase)	1
-0.169	-0.0684	-0.207	inactive	COASY (Coenzyme A synthase)	2
-0.105	-0.112	-0.178	inactive	COASY (Coenzyme A synthase)	3
-0.113	-0.0931	-0.111	inactive	COASY (Coenzyme A synthase)	4

3 of these entries, set out differently.
{"target": "CRIM1 (cysteine rich transmembrane BMP regulator 1)", "reagent no.": 1, "synergy score with trametinib": 0.107, "synergy score with BYL719": -0.134, "synergy score with cetuximab": -0.0375, "Outcome": "active"}
{"target": "CRIM1 (cysteine rich transmembrane BMP regulator 1)", "reagent no.": 2, "synergy score with trametinib": -0.02, "synergy score with BYL719": -0.299, "synergy score with cetuximab": -0.0928, "Outcome": "inactive"}
{"target": "CRIM1 (cysteine rich transmembrane BMP regulator 1)", "reagent no.": 3, "synergy score with trametinib": 0.0427, "synergy score with BYL719": -0.0685, "synergy score with cetuximab": -0.11, "Outcome": "inactive"}

Continued:
synergy score with trametinib	synergy score with BYL719	synergy score with cetuximab	Outcome	target	reagent no.
0.197	-0.0106	0.0438	active	GUCY2D (guanylate cyclase 2D, retinal)	1
0.273	-0.00684	0.103	active	GUCY2D (guanylate cyclase 2D, retinal)	2
-0.013	-0.163	-0.129	inactive	GUCY2D (guanylate cyclase 2D, retinal)	3
0.302	-0.163	-0.118	active	GUCY2D (guanylate cyclase 2D, retinal)	4
0.193	-0.0585	-0.159	active	SYK (spleen associated tyrosine kinase)	1
0.0689	-0.145	-0.162	inactive	SYK (spleen associated tyrosine kinase)	2
0.145	0.00945	-0.0728	active	SYK (spleen associated tyrosine kinase)	3
0.0157	-0.181	-0.134	inactive	SYK (spleen associated tyrosine kinase)	4
0.0737	-0.186	-0.0434	inactive	IRAK3 (interleukin 1 receptor associated kinase 3)	1
0.222	0.0491	0.095	active	IRAK3 (interleukin 1 receptor associated kinase 3)	2
-0.0842	-0.232	-0.181	inactive	IRAK3 (interleukin 1 receptor associated kinase 3)	3
0.0995	-0.0308	-0.0152	inactive	IRAK3 (interleukin 1 receptor associated kinase 3)	4
0.0651	-0.0957	-0.209	inactive	STK36 (serine/threonine kinase 36)	1
0.103	-0.203	-0.288	active	STK36 (serine/threonine kinase 36)	2
0.0692	-0.183	-0.119	inactive	STK36 (serine/threonine kinase 36)	3
-0.221	-0.232	-0.247	inactive	STK36 (serine/threonine kinase 36)	4
